# The other results are listed elsewhere or left out. The list holds hits alone, and they repeat only in part.
# The chains behind the UniProt entries cited, without tags or fusion partners.
# ATP6V1F, Q16864, UniProt Q16864, whole entry: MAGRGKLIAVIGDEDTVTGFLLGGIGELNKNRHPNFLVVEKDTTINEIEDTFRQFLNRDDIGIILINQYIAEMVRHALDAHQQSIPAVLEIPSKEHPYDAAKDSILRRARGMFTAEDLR
# CLPX, O76031, UniProt O76031, whole entry: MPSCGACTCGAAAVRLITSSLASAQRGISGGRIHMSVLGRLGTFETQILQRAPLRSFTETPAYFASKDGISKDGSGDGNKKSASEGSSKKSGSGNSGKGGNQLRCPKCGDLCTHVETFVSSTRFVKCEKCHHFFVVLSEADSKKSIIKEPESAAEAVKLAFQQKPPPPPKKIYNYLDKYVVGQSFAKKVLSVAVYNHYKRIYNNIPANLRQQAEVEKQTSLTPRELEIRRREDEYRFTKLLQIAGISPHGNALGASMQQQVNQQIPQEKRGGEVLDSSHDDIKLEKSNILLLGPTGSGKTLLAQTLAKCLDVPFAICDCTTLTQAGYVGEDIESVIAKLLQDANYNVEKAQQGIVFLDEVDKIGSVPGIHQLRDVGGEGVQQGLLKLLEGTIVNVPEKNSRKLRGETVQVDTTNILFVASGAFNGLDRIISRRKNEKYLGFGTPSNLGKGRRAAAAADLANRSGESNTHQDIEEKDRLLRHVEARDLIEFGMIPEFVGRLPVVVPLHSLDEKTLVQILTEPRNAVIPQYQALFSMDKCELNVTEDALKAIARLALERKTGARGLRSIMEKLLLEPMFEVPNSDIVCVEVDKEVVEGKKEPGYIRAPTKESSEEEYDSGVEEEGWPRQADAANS
# CXorf40A, Q8TE69, UniProt Q8TE69, whole entry: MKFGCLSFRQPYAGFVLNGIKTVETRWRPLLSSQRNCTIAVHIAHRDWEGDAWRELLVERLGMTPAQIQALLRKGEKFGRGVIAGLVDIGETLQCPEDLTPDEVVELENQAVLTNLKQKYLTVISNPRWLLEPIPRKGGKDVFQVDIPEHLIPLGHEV
# DMD, P11532, UniProt P11532, whole entry: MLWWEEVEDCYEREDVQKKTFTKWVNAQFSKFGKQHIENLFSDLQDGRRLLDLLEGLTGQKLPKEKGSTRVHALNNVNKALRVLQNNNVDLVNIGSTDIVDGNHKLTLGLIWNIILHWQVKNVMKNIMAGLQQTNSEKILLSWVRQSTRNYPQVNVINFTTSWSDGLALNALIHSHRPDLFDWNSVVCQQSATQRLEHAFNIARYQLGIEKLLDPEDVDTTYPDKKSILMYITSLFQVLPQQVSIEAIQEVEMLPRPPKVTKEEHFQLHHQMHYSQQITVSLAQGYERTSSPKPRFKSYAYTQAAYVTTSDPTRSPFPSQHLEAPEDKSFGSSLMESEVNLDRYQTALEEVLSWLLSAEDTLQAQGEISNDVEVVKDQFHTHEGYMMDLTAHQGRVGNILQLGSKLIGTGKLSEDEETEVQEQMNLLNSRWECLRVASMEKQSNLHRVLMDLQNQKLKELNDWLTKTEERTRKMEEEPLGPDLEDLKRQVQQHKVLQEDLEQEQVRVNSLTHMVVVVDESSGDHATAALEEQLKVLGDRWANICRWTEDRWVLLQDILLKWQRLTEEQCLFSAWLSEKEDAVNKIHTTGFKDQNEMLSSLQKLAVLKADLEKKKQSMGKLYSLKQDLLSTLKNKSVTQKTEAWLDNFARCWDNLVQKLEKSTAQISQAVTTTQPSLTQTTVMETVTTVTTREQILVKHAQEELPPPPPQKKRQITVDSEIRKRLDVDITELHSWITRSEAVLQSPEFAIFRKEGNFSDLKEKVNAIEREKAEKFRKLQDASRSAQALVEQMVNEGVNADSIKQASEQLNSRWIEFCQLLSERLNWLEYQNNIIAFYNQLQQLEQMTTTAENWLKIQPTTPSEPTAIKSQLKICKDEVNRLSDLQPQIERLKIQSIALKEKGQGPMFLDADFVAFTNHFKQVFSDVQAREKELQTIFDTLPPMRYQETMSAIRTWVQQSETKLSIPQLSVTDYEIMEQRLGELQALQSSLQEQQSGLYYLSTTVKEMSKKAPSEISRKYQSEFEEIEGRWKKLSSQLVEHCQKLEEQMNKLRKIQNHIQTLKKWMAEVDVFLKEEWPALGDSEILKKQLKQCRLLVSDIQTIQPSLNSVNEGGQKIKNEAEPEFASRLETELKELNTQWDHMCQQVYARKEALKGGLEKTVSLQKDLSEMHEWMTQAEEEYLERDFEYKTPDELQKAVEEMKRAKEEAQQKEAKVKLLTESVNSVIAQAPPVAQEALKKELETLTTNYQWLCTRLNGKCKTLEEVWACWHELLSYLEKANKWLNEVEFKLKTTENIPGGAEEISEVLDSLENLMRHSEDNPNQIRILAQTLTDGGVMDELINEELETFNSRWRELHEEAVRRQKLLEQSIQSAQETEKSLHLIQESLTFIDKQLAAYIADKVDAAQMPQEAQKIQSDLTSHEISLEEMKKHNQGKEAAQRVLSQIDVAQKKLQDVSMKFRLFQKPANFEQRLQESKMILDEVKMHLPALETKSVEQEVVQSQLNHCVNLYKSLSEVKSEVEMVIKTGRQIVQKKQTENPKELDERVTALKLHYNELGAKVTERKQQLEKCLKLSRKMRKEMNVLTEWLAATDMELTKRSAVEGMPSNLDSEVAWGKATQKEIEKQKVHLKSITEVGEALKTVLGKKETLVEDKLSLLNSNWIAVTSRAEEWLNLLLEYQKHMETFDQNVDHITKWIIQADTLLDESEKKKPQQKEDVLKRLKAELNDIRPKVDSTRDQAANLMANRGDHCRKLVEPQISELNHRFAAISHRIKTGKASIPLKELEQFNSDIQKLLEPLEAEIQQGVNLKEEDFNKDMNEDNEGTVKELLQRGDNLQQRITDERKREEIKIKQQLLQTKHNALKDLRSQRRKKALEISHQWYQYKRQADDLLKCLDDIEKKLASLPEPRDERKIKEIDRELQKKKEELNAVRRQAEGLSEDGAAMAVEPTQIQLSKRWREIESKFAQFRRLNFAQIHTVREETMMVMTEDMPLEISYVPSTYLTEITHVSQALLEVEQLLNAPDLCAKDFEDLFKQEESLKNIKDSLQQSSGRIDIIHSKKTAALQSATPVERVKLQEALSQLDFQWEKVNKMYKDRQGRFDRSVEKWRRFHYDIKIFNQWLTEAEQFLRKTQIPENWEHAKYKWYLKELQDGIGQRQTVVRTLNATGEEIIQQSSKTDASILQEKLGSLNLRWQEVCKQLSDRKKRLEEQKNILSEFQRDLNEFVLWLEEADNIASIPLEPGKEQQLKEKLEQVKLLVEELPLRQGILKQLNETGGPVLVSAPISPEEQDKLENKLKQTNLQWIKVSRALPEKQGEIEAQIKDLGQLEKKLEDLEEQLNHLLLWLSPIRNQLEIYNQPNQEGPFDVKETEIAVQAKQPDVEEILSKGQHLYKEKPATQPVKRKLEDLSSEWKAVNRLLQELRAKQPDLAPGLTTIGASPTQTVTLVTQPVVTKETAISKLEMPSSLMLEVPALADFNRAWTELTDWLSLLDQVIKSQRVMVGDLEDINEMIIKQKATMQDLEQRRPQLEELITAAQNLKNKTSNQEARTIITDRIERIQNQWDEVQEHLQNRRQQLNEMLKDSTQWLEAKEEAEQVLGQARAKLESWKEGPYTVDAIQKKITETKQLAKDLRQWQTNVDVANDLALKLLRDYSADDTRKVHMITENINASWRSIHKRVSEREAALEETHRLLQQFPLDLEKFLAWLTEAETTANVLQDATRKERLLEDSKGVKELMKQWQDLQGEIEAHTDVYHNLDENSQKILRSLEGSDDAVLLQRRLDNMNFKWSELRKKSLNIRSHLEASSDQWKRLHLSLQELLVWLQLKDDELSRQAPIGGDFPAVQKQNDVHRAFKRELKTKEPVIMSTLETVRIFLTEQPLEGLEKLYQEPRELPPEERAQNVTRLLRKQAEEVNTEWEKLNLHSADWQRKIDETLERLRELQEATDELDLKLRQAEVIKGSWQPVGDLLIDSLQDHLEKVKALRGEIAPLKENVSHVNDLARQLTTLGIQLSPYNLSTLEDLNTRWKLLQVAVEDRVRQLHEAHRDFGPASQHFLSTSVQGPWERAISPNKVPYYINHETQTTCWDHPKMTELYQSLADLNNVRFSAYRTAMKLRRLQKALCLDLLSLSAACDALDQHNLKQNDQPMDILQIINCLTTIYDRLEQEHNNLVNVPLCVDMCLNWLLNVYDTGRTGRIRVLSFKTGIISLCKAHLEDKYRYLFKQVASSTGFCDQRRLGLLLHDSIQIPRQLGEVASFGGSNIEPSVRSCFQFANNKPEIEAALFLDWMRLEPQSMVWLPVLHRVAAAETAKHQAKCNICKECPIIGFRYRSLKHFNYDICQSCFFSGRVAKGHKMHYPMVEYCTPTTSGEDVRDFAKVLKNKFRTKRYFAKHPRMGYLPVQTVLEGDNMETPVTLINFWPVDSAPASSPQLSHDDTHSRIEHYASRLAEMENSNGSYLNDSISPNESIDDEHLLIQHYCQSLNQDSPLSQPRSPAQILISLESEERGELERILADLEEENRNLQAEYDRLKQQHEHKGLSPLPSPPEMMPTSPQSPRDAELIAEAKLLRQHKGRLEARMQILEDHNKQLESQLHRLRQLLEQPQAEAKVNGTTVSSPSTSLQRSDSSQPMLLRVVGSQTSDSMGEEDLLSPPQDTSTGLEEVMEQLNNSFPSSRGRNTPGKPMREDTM
# MECP2, P51608, UniProt P51608, whole entry: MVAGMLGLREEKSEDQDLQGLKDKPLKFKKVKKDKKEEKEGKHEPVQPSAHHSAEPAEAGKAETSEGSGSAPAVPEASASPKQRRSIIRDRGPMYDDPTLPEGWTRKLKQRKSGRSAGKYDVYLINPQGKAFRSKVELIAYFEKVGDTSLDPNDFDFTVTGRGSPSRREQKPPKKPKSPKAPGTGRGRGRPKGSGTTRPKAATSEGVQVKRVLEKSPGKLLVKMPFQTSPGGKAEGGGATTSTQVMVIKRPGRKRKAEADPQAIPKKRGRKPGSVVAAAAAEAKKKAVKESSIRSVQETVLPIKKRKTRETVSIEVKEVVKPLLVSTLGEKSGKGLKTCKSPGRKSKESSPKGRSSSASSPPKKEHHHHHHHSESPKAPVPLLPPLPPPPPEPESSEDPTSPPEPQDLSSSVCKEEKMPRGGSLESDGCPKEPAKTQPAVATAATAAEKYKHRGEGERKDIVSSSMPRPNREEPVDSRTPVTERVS
# DCTN3, O75935, UniProt O75935, whole entry: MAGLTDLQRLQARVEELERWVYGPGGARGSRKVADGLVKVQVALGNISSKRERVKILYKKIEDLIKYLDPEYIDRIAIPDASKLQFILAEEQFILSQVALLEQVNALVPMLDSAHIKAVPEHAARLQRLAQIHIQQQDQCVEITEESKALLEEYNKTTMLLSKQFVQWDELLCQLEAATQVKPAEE
# DLX6, P56179, UniProt P56179, whole entry: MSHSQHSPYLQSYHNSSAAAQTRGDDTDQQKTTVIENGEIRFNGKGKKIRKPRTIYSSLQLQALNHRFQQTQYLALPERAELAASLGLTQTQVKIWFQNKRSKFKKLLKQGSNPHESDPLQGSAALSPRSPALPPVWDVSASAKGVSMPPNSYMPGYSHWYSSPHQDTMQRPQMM
# Assays:
# Assay in all cases: PRISMA enrichment of interactor (LFQ) in peptide spot vs all other peptide spots (log2 fold change); higher = stronger / more specific binding of the interactor to the peptide
# AK4, P27144 = molecular target: AK4, P27144
# Description: (§1)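 PRISMA: 221 full-length sORF-encoded peptides (3-15 aa), plus SOS1/GLUT1 control peptides, were spot-synthesized on cellulose membranes in triplicate. Membranes were incubated with HEK293T lysate, and bound proteins were identified by LC-MS/MS with LFQ. Enrichment is the log2 fold change versus all other peptide spots; only significant interactors are listed (cutoff c=6, x0=2.8).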
# ANKRD26, Q9UPS8 = molecular target: ANKRD26, Q9UPS8
# Description: as §1
# AP3D1, O14617 = molecular target: AP3D1, O14617
# Description: as §1
# ASCC1, Q8N9N2 = molecular target: ASCC1, Q8N9N2
# Description: as §1
# ATP6V1F, Q16864 = molecular target: ATP6V1F, Q16864
# Description: as §1
# CLPX, O76031 = molecular target: CLPX, O76031
# Description: as §1
# COQ8A, Q8NI60 = molecular target: COQ8A, Q8NI60
# Description: as §1
# CTNND1, O60716 = molecular target: CTNND1, O60716
# Description: as §1
# CXorf40A, Q8TE69 = molecular target: CXorf40A, Q8TE69
# Description: as §1
# DMD, P11532 = molecular target: DMD, P11532
# Description: as §1
# EHD1, Q9H4M9 = molecular target: EHD1, Q9H4M9
# Description: as §1
# EHD4, Q9H223 = molecular target: EHD4, Q9H223
# Description: as §1
# GGT5, P36269 = molecular target: GGT5, P36269
# Description: as §1
# MECP2, P51608 = molecular target: MECP2, P51608
# Description: as §1
# MRPS34, P82930 = molecular target: MRPS34, P82930
# Description: as §1
# NIPSNAP1, Q9BPW8 = molecular target: NIPSNAP1, Q9BPW8
# Description: as §1
# OPA1, O60313 = molecular target: OPA1, O60313
# Description: as §1
# ORC4, O43929 = molecular target: ORC4, O43929
# Description: as §1
# PDS5A, Q29RF7 = molecular target: PDS5A, Q29RF7
# Description: as §1
# PINX1, Q96BK5 = molecular target: PINX1, Q96BK5
# Description: as §1
# RELCH, Q9P260 = molecular target: RELCH, Q9P260
# Description: as §1
# RFC1, P35251 = molecular target: RFC1, P35251
# Description: as §1
# SCPEP1, Q9HB40 = molecular target: SCPEP1, Q9HB40
# Description: as §1
# TFB1M, Q8WVM0 = molecular target: TFB1M, Q8WVM0
# Description: as §1
# TMEM201, Q5SNT2 = molecular target: TMEM201, Q5SNT2
# Description: as §1
# UMPS, P11172 = molecular target: UMPS, P11172
# Description: as §1
# ATIC, P31939 = molecular target: ATIC, P31939
# Description: as §1
# BCAS2, O75934 = molecular target: BCAS2, O75934
# Description: as §1
# DCTN3, O75935 = molecular target: DCTN3, O75935
# Description: as §1
# DLX6, P56179 = molecular target: DLX6, P56179
# Description: as §1
# MAGED2, Q9UNF1 = molecular target: MAGED2, Q9UNF1
# Description: as §1
# MARK2, Q7KZI7 = molecular target: MARK2, Q7KZI7
# Description: as §1
# ORC3, Q9UBD5 = molecular target: ORC3, Q9UBD5
# Description: as §1
# QRICH1, Q2TAL8 = molecular target: QRICH1, Q2TAL8
# Description: as §1
# AIP, O00170 = molecular target: AIP, O00170
# Description: as §1
# ALKBH2, Q6NS38 = molecular target: ALKBH2, Q6NS38
# Description: as §1
# C19orf53, Q9UNZ5 = molecular target: C19orf53, Q9UNZ5
# Description: as §1
# CCDC137, Q6PK04 = molecular target: CCDC137, Q6PK04
# Description: as §1
# CCDC178, Q5BJE1 = molecular target: CCDC178, Q5BJE1
# Description: as §1
# CSNK1E, P49674 = molecular target: CSNK1E, P49674
# Description: as §1
# CXorf56, Q9H5V9 = molecular target: CXorf56, Q9H5V9
# Description: as §1
# ENDOG, Q14249 = molecular target: ENDOG, Q14249
# Description: as §1
# PBK, Q96KB5 = molecular target: PBK, Q96KB5
# Description: as §1
# PCLAF, Q15004 = molecular target: PCLAF, Q15004
# Description: as §1
# PSRC1, Q6PGN9 = molecular target: PSRC1, Q6PGN9
# Description: as §1
# RAB34 = molecular target: RAB34
# Description: as §1
# RBIS, Q8N0T1 = molecular target: RBIS, Q8N0T1
# Description: as §1
# RBM33, Q96EV2 = molecular target: RBM33, Q96EV2
# Description: as §1
binder,measurement,setting,value
MNWLQWLLLLRGR [EDEM2],PRISMA enrichment of interactor (log2),"AK4, P27144",5.37
same,PRISMA enrichment of interactor (log2),"ANKRD26, Q9UPS8",4.19
same,PRISMA enrichment of interactor (log2),"AP3D1, O14617",4.61
same,PRISMA enrichment of interactor (log2),"ASCC1, Q8N9N2",3.8
same,PRISMA enrichment of interactor (log2),"ATP6V1F, Q16864",4.4
same,PRISMA enrichment of interactor (log2),"CLPX, O76031",4.66
same,PRISMA enrichment of interactor (log2),"COQ8A, Q8NI60",4.79
same,PRISMA enrichment of interactor (log2),"CTNND1, O60716",4.71
same,PRISMA enrichment of interactor (log2),"CXorf40A, Q8TE69",7.65
same,PRISMA enrichment of interactor (log2),"DMD, P11532",7.93
same,PRISMA enrichment of interactor (log2),"EHD1, Q9H4M9",4.93
same,PRISMA enrichment of interactor (log2),"EHD4, Q9H223",5.43
same,PRISMA enrichment of interactor (log2),"GGT5, P36269",5.49
same,PRISMA enrichment of interactor (log2),"MECP2, P51608",5.61
same,PRISMA enrichment of interactor (log2),"MRPS34, P82930",6.7
same,PRISMA enrichment of interactor (log2),"NIPSNAP1, Q9BPW8",4.59
same,PRISMA enrichment of interactor (log2),"OPA1, O60313",4.67
same,PRISMA enrichment of interactor (log2),"ORC4, O43929",5.79
same,PRISMA enrichment of interactor (log2),"PDS5A, Q29RF7",4.59
same,PRISMA enrichment of interactor (log2),"PINX1, Q96BK5",5.95
same,PRISMA enrichment of interactor (log2),"RELCH, Q9P260",3.97
same,PRISMA enrichment of interactor (log2),"RFC1, P35251",4.53
same,PRISMA enrichment of interactor (log2),"SCPEP1, Q9HB40",6.14
same,PRISMA enrichment of interactor (log2),"TFB1M, Q8WVM0",5.67
same,PRISMA enrichment of interactor (log2),"TMEM201, Q5SNT2",5.69
same,PRISMA enrichment of interactor (log2),"UMPS, P11172",5.61
MQWLLDCAMTGRK [RASSF4],PRISMA enrichment of interactor (log2),"AK4, P27144",5.63
same,PRISMA enrichment of interactor (log2),"ATIC, P31939",5.36
same,PRISMA enrichment of interactor (log2),"BCAS2, O75934",4.46
same,PRISMA enrichment of interactor (log2),"DCTN3, O75935",6.67
same,PRISMA enrichment of interactor (log2),"DLX6, P56179",8.59
same,PRISMA enrichment of interactor (log2),"MAGED2, Q9UNF1",4.44
same,PRISMA enrichment of interactor (log2),"MARK2, Q7KZI7",6.19
same,PRISMA enrichment of interactor (log2),"ORC3, Q9UBD5",4.71
same,PRISMA enrichment of interactor (log2),"QRICH1, Q2TAL8",7.48
MTVALYE [RP11-121C2.3],PRISMA enrichment of interactor (log2),"AIP, O00170",4.1
same,PRISMA enrichment of interactor (log2),"ALKBH2, Q6NS38",5.57
same,PRISMA enrichment of interactor (log2),"C19orf53, Q9UNZ5",8.49
same,PRISMA enrichment of interactor (log2),"CCDC137, Q6PK04",5.76
same,PRISMA enrichment of interactor (log2),"CCDC178, Q5BJE1",6.7
same,PRISMA enrichment of interactor (log2),"CSNK1E, P49674",6.59
same,PRISMA enrichment of interactor (log2),"CXorf56, Q9H5V9",6.68
same,PRISMA enrichment of interactor (log2),"ENDOG, Q14249",4.16
same,PRISMA enrichment of interactor (log2),"PBK, Q96KB5",5.06
same,PRISMA enrichment of interactor (log2),"PCLAF, Q15004",5
same,PRISMA enrichment of interactor (log2),"PSRC1, Q6PGN9",5.04
same,PRISMA enrichment of interactor (log2),RAB34,4.83
same,PRISMA enrichment of interactor (log2),"RBIS, Q8N0T1",4.72
same,PRISMA enrichment of interactor (log2),"RBM33, Q96EV2",5.35

# Random excerpt: 3 records from the list
binder,measurement,setting,value
MNWLQWLLLLRGR [EDEM2],PRISMA enrichment of interactor (log2),"TMEM201, Q5SNT2",5.69
MQWLLDCAMTGRK [RASSF4],PRISMA enrichment of interactor (log2),"DCTN3, O75935",6.67
MTVALYE [RP11-121C2.3],PRISMA enrichment of interactor (log2),"RBM33, Q96EV2",5.35

# From the supplement of paper PMC10032668
